Experimental data: PubChem BioAssay AID330 (DTP/NCI, 2004)
The list shows only some results of the screen, not a fair sample: it covers a few groups of compounds. Other doses and runs of a compound may be missing. T/C: endpoint of the treated group in % of that of the vehicle group. Where survival is the endpoint, the PubChem record calls one and a half times the control and up active, and a quarter to a half above the control has no call in these data; cut-offs in other NCI protocols can differ. Schedules are NCI's codes, read here as Q, the interval in days (D) or hours (H), X, the number of doses. Some entries were tested several times; their values stand side by side, smallest first. Some entries show no survivor count and are marked so; the dose need not have been tolerated.

Test system: P388 leukemia ip, CD2F1 mice, survival T/C
Assay: NCI In Vivo Anticancer Drug Screen. Data for tumor model P388 Leukemia (intraperitoneal) in CD2F1 (CDF1) mice
Conditions: T/C endpoint: median survival time, higher T/C = longer survival
[1] = dose: 1.5 mg/kg/injection, schedule: Q01DX009 (ip), vehicle: saline
[2] = dose: 3.0 mg/kg/injection, schedule: Q01DX009 (ip), vehicle: saline

## Cc1ccc(C)c(CN(CCCl)CCCl)c1
dose: 0.4 mg/kg/injection, schedule: Q01DX009 (ip), vehicle: saline
  T/C: 107 % of control [survivor count not shown]
dose: 0.8 mg/kg/injection, schedule: Q01DX009 (ip), vehicle: saline
  T/C: 115 % of control [survivor count not shown]
[1]
  T/C: 119 % of control [survivor count not shown]
[2]
  T/C: 132 % of control [survivor count not shown]
dose: 3.13 mg/kg/injection, schedule: Q01DX009 (ip), vehicle: saline
  T/C: 142 % of control [survivor count not shown]
dose: 6.25 mg/kg/injection, schedule: Q01DX009 (ip), vehicle: saline
  T/C: 145 [survivor count not shown] and 151 % of control [survivor count not shown]
dose: 12.5 mg/kg/injection, schedule: Q01DX009 (ip), vehicle: saline
  T/C: 166 [survivor count not shown] and 172 % of control [survivor count not shown]
dose: 25.0 mg/kg/injection, schedule: Q01DX009 (ip), vehicle: saline
  T/C: 181 [survivor count not shown] and 196 % of control [survivor count not shown]

## O=C1c2ccccc2C(=O)N1CN(CCCl)CCCl
dose: 12.5 mg/kg/injection, schedule: Q01DX005 (ip), vehicle: Klucel (hydroxypropylcellulose) (HPC)
  T/C: 108 % of control
dose: 25.0 mg/kg/injection, schedule: Q01DX005 (ip), vehicle: Klucel (hydroxypropylcellulose) (HPC)
  T/C: 117 % of control
dose: 50.0 mg/kg/injection, schedule: Q01DX005 (ip), vehicle: Klucel (hydroxypropylcellulose) (HPC)
  T/C: 119, 134, 135 % of control
dose: 100.0 mg/kg/injection, schedule: Q01DX005 (ip), vehicle: Klucel (hydroxypropylcellulose) (HPC)
  T/C: 128 and 163 % of control
dose: 200.0 mg/kg/injection, schedule: Q01DX005 (ip), vehicle: Klucel (hydroxypropylcellulose) (HPC)
  T/C: 182 and 216 % of control
dose: 400.0 mg/kg/injection, schedule: Q01DX005 (ip), vehicle: Klucel (hydroxypropylcellulose) (HPC)
  T/C: 94 % of control

## BrCCN(CCBr)Cc1ccccc1
dose: 0.6 mg/kg/injection, schedule: Q01DX009 (ip), vehicle: saline
  T/C: 137 [survivor count not shown] and 162 % of control [survivor count not shown]
dose: 1.3 mg/kg/injection, schedule: Q01DX009 (ip), vehicle: saline
  T/C: 152 [survivor count not shown] and 162 % of control [survivor count not shown]
dose: 2.6 mg/kg/injection, schedule: Q01DX009 (ip), vehicle: saline
  T/C: 90 [survivor count not shown], 135 [survivor count not shown], 174 % of control [survivor count not shown]
dose: 2.6 mg/kg/injection, schedule: Q04DX003 (ip), vehicle: saline
  T/C: 143 [survivor count not shown] and 165 % of control [survivor count not shown]
dose: 4.0 mg/kg/injection, schedule: Q04DX003 (ip), vehicle: saline
  T/C: 146 [survivor count not shown] and 171 % of control [survivor count not shown]
dose: 6.0 mg/kg/injection, schedule: Q04DX003 (ip), vehicle: saline
  T/C: 123 [survivor count not shown] and 153 % of control [survivor count not shown]
dose: 9.0 mg/kg/injection, schedule: Q04DX003 (ip), vehicle: saline
  T/C: 109 % of control [survivor count not shown]

## ClCCN(CCCl)C12CC3CC(CC(C3)C1)C2
dose: 0.33 mg/kg/injection, schedule: Q01DX009 (ip), vehicle: Klucel (hydroxypropylcellulose) (HPC)
  T/C: 117 % of control [survivor count not shown]
dose: 0.66 mg/kg/injection, schedule: Q01DX009 (ip), vehicle: Klucel (hydroxypropylcellulose) (HPC)
  T/C: 131 % of control [survivor count not shown]
dose: 1.0 mg/kg/injection, schedule: Q01DX009 (ip), vehicle: Klucel (hydroxypropylcellulose) (HPC)
  T/C: 158 % of control [survivor count not shown]
dose: 1.5 mg/kg/injection, schedule: Q01DX009 (ip), vehicle: Klucel (hydroxypropylcellulose) (HPC)
  T/C: 174 % of control [survivor count not shown]
dose: 2.0 mg/kg/injection, schedule: Q01DX009 (ip), vehicle: Klucel (hydroxypropylcellulose) (HPC)
  T/C: 91 % of control [survivor count not shown]

## CCN1CCCC(OC(=O)C(O)(c2ccccc2)C2CCCC2)C1 (stereo unspecified)
dose: 50.0 mg/kg/injection, schedule: Q01DX009 (ip), vehicle: Klucel (hydroxypropylcellulose) (HPC)
  T/C: 106 % of control [survivor count not shown]
dose: 100.0 mg/kg/injection, schedule: Q01DX009 (ip), vehicle: Klucel (hydroxypropylcellulose) (HPC)
  T/C: 109 % of control [survivor count not shown]
dose: 200.0 mg/kg/injection, schedule: Q01DX009 (ip), vehicle: Klucel (hydroxypropylcellulose) (HPC)
  T/C: 111 % of control [survivor count not shown]

## ClCCN1CCCC1CCl (stereo unspecified)
dose: 0.75 mg/kg/injection, schedule: Q01DX009 (ip), vehicle: saline
  T/C: 143 % of control [survivor count not shown]
[1]
  T/C: 153 % of control [survivor count not shown]
[2]
  T/C: 170 % of control [survivor count not shown]
dose: 4.5 mg/kg/injection, schedule: Q01DX009 (ip), vehicle: saline
  T/C: 207 % of control [survivor count not shown]
dose: 375.0 micrograms/kg/injection, schedule: Q01DX009 (ip), vehicle: saline
  T/C: 123 % of control [survivor count not shown]
dose: 750.0 micrograms/kg/injection, schedule: Q01DX009 (ip), vehicle: saline
  T/C: 128 % of control [survivor count not shown]
dose: 1500.0 micrograms/kg/injection, schedule: Q01DX009 (ip), vehicle: saline
  T/C: 148 % of control [survivor count not shown]
dose: 3000.0 micrograms/kg/injection, schedule: Q01DX009 (ip), vehicle: saline
  T/C: 176 % of control [survivor count not shown]
dose: 6000.0 micrograms/kg/injection, schedule: Q01DX009 (ip), vehicle: saline
  T/C: 92 % of control [survivor count not shown]

## C#CCN(CCCl)CCCl
dose: 1.0 mg/kg/injection, schedule: Q01DX009 (ip), vehicle: saline with Tween-80
  T/C: 168 % of control [survivor count not shown]
dose: 2.0 mg/kg/injection, schedule: Q01DX009 (ip), vehicle: saline with Tween-80
  T/C: 222 % of control [survivor count not shown]
dose: 4.0 mg/kg/injection, schedule: Q01DX009 (ip), vehicle: saline with Tween-80
  T/C: 90 % of control [survivor count not shown]
dose: 4.0 mg/kg/injection, schedule: Q01DX009 (ip), vehicle: saline
  T/C: 186 % of control [survivor count not shown]
dose: 8.0 mg/kg/injection, schedule: Q01DX009 (ip), vehicle: saline
  T/C: 86 % of control [survivor count not shown]
dose: 8.0 mg/kg/injection, schedule: Q04DX003 (ip), vehicle: saline
  T/C: 168 % of control [survivor count not shown]
dose: 16.0 mg/kg/injection, schedule: Q04DX003 (ip), vehicle: saline
  T/C: 90 % of control [survivor count not shown]

## CC(C)(O)C#CCN(CCCl)CCCl
dose: 0.75 mg/kg/injection, schedule: Q01DX009 (ip), vehicle: saline sonified
  T/C: 181 % of control [survivor count not shown]
dose: 0.75 mg/kg/injection, schedule: Q04DX003 (ip), vehicle: saline
  T/C: 117 % of control [survivor count not shown]
dose: 1.5 mg/kg/injection, schedule: Q01DX009 (ip), vehicle: saline sonified
  T/C: 118 % of control [survivor count not shown]
dose: 1.5 mg/kg/injection, schedule: Q04DX003 (ip), vehicle: saline
  T/C: 121 % of control [survivor count not shown]
dose: 2.0 mg/kg/injection, schedule: Q04DX003 (ip), vehicle: saline with Tween-80
  T/C: 145 % of control [survivor count not shown]
dose: 3.0 mg/kg/injection, schedule: Q04DX003 (ip), vehicle: saline with Tween-80
  T/C: 140 % of control [survivor count not shown]
dose: 3.0 mg/kg/injection, schedule: Q04DX003 (ip), vehicle: saline
  T/C: 156 % of control [survivor count not shown]
dose: 4.5 mg/kg/injection, schedule: Q04DX003 (ip), vehicle: saline with Tween-80
  T/C: 168 % of control [survivor count not shown]

## C=C(C)C(O)(C(=O)OC1CN2CCC1CC2)C1CCCCC1 (stereo unspecified)
dose: 100.0 mg/kg/injection, schedule: Q01DX001 (ip), vehicle: saline
  T/C: 95 % of control [survivor count not shown]
dose: 200.0 mg/kg/injection, schedule: Q01DX001 (ip), vehicle: saline
  T/C: 100 % of control [survivor count not shown]
dose: 400.0 mg/kg/injection, schedule: Q01DX001 (ip), vehicle: saline
  T/C: 92 % of control [survivor count not shown]
